# In the supplement of paper PMC12823440, “Inhibitors supercharge kinase turnover through native proteolytic circuits” (Nature, 2025):
# By UniProt entry, the sequences of proteins in these tests, tags left out. Where a name states a change or a piece, a line headed by the entry shows the natural chain unless it says otherwise.
# UniProt P50613: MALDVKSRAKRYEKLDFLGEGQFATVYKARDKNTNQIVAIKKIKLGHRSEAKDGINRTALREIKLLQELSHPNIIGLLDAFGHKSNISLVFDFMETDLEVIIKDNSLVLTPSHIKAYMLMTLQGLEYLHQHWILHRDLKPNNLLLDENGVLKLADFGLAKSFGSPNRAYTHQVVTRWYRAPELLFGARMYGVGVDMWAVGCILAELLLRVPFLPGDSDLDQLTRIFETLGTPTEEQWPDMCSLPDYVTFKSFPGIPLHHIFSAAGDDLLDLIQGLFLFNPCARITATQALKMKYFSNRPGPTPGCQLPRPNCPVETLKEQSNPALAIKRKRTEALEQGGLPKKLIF
# UniProt P50750, whole entry: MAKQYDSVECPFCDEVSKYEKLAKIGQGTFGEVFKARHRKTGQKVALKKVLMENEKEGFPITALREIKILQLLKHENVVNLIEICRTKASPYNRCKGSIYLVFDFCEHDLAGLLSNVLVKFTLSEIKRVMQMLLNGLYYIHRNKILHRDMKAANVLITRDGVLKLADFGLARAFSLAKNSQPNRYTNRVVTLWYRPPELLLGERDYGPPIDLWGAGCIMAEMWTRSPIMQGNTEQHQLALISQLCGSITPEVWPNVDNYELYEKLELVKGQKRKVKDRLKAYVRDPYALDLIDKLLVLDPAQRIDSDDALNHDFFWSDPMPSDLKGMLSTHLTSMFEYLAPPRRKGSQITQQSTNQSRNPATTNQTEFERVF
# UniProt P41240: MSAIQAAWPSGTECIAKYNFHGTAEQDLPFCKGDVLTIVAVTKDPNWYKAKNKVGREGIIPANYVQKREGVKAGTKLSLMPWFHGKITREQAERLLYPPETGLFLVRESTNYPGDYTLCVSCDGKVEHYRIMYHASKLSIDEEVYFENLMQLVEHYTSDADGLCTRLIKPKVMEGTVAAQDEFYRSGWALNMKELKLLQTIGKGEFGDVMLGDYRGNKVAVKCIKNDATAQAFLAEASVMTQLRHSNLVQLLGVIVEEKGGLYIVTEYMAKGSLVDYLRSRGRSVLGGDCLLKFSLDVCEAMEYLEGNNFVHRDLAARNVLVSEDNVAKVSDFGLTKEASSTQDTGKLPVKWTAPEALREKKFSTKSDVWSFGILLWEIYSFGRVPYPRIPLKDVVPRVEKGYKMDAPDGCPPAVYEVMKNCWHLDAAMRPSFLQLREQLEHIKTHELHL
# UniProt P48730: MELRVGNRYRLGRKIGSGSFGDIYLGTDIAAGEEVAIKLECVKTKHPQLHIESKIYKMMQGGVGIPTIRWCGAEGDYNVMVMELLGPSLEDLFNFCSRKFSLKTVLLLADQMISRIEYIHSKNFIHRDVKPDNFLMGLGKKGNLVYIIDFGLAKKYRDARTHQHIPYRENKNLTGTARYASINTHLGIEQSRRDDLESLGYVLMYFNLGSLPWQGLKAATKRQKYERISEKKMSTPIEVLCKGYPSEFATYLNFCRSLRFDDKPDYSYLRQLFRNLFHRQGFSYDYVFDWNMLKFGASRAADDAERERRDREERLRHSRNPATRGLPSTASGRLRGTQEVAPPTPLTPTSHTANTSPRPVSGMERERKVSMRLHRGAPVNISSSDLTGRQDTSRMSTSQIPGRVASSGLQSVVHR
# UniProt Q9Y463, whole entry, looked up: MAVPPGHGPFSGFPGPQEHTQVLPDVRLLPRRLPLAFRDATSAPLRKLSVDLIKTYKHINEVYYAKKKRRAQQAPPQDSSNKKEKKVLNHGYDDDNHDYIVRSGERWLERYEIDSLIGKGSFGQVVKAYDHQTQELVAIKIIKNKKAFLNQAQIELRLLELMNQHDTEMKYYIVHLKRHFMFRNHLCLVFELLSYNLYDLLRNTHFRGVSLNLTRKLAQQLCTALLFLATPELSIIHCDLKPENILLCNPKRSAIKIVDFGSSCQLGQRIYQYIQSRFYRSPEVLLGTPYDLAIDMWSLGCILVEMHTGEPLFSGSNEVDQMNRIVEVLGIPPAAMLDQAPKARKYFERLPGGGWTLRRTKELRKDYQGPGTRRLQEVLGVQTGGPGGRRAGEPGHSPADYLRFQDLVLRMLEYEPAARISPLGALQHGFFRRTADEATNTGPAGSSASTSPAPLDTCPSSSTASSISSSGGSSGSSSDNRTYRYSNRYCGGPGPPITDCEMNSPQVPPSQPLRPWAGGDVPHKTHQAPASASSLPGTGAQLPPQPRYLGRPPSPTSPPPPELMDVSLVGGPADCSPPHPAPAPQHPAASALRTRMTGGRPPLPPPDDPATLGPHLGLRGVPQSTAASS
# UniProt Q92630: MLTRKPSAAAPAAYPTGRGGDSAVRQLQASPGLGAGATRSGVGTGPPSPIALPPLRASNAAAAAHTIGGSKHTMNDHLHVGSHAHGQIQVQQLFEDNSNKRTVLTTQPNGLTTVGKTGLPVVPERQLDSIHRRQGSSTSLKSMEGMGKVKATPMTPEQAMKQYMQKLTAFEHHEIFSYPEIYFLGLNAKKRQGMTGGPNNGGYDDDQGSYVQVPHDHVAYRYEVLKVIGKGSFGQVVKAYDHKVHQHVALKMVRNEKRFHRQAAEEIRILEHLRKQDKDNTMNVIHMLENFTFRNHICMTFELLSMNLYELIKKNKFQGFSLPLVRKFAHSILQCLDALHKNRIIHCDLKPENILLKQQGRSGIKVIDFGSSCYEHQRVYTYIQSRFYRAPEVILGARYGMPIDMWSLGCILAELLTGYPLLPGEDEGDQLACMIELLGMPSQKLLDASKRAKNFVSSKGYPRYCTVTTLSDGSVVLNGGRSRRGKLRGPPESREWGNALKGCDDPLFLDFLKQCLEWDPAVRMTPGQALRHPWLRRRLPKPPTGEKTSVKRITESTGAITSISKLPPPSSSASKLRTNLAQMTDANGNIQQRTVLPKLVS
# UniProt P29317, whole entry: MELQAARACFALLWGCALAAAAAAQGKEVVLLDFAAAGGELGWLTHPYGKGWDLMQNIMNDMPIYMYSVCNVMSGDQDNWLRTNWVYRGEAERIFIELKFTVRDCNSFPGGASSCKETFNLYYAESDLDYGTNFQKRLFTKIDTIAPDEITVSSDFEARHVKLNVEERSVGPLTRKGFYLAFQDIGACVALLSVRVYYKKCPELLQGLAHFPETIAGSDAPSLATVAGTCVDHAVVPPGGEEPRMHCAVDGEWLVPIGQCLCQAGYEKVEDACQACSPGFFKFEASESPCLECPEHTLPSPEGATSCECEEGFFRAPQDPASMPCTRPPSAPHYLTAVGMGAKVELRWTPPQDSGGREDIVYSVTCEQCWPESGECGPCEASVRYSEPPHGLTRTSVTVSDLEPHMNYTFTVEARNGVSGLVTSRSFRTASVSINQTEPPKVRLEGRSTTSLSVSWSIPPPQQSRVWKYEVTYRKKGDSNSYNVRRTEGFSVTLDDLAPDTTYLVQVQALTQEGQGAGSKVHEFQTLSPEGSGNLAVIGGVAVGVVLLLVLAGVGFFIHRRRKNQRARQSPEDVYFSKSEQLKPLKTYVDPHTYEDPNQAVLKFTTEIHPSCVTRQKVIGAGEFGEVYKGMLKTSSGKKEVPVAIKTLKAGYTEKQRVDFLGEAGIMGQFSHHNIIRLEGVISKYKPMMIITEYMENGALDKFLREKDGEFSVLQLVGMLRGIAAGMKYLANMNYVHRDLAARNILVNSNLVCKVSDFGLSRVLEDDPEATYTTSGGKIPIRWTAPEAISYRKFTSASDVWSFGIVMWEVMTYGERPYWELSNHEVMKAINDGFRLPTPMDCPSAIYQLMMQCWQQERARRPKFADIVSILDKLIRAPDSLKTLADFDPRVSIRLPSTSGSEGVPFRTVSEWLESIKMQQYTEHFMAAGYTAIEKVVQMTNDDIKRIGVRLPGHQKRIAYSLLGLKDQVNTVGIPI
# UniProt P21860, whole entry: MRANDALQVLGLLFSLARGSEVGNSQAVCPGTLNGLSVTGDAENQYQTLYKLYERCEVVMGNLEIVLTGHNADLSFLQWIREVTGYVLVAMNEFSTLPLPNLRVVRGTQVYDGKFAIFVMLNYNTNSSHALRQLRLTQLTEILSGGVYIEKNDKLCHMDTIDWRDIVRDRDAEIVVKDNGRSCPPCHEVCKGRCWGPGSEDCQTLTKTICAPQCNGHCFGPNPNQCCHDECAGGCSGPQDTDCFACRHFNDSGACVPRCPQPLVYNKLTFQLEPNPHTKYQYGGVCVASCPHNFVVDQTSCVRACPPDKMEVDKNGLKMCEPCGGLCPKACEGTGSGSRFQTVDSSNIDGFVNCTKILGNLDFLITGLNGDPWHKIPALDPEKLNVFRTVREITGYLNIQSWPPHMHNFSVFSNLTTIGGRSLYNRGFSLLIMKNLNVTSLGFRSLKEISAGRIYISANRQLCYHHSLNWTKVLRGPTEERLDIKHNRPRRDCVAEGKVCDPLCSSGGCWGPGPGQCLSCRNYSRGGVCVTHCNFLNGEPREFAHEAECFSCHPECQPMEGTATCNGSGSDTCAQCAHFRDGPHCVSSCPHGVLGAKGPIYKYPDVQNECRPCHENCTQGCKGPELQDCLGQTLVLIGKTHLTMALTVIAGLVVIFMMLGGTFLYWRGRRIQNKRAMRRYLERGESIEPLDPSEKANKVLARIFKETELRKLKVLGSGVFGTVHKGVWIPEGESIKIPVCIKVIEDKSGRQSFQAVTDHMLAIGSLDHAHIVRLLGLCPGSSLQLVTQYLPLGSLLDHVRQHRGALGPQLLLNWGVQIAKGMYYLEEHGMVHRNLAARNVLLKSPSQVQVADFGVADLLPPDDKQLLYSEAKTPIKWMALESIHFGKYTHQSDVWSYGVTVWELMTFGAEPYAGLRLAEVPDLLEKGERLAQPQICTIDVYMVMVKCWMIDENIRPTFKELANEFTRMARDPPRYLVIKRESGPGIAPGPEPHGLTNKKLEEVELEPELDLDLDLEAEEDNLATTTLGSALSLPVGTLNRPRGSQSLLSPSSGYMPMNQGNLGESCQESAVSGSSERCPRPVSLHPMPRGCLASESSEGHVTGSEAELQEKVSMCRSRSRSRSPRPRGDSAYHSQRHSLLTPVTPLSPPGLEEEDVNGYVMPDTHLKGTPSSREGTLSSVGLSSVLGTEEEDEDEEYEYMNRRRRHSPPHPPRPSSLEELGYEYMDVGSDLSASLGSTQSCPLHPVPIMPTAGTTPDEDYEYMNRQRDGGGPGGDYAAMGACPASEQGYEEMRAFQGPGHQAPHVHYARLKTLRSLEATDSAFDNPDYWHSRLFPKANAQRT
# UniProt Q15303, whole entry R711C: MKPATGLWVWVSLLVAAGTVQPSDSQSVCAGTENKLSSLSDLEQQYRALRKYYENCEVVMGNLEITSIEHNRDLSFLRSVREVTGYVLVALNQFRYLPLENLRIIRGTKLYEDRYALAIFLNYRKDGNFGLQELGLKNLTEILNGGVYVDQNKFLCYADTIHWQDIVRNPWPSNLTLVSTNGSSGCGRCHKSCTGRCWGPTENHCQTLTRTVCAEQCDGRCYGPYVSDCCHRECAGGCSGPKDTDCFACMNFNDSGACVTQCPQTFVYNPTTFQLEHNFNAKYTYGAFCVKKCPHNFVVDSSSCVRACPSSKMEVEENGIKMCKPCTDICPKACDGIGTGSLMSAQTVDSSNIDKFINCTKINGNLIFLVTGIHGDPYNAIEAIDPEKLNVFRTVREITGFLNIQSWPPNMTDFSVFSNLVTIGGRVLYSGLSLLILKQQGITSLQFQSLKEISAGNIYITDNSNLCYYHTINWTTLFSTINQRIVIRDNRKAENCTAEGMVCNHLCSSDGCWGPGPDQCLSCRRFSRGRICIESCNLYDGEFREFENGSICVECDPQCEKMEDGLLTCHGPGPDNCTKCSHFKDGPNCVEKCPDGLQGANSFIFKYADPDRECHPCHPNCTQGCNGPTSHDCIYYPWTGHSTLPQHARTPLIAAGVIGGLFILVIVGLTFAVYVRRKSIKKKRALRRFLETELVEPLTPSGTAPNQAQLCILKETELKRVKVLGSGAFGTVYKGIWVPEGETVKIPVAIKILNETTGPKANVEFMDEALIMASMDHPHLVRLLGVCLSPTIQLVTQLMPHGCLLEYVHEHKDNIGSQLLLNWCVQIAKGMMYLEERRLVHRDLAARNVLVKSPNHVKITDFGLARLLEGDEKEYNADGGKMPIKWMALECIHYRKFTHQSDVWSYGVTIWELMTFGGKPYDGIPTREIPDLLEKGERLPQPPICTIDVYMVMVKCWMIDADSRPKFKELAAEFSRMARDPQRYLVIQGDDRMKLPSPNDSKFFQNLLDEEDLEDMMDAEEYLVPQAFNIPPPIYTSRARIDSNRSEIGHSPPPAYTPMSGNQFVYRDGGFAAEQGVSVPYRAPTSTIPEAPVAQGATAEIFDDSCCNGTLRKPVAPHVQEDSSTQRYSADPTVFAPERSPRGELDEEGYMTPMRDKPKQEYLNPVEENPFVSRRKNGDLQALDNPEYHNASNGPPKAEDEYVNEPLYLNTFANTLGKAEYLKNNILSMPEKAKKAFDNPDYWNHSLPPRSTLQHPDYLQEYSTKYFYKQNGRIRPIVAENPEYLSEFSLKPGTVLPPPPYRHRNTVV
# Where a name gives a salt, the structure may show the parent alone. The list shows a part of the results. Hit calls seldom repeat between salt and free forms of one compound.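 Kinases were expressed as nanoluciferase fusions in K562 cells and luminescence was read every 4 h between 2 and 18 h as percent of control, DMSO set to 100% and a positive control to 0%. A time point counts as decreased when the signal drops significantly (2 sigma). The hit call is the authors' own, does not follow from the count of time points alone, and its rule is not shown.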
# Experiments:
# Assay in all cases: kinase-Nluc reporter destabilization hit call (1 = scored as downregulated) (binary); higher = compound decreases kinase abundance
# Conditions in all cases: K562; 2-18 h
# CDK7 = CDK7 (UniProt P50613)
# CDK9 = CDK9 (UniProt P50750)
# CHEK2 = CHEK2 (UniProt O96017)
# CSF1R = CSF1R (UniProt P07333)
# CSK = CSK (UniProt P41240)
# CSNK1A1 = CSNK1A1 (UniProt P48729)
# CSNK1D = CSNK1D (UniProt P48730)
# DDR1 = DDR1 (UniProt Q08345)
# DYRK1B = DYRK1B (UniProt Q9Y463)
# DYRK2 = DYRK2 (UniProt Q92630)
# EGFR = EGFR (UniProt P00533)
# EGFR_G719S = EGFR_G719S (UniProt P00533)
# EGFR_G719S_T790M = EGFR_G719S_T790M (UniProt P00533)
# EGFR_L718V = EGFR_L718V (UniProt P00533)
# EGFR_L858R = EGFR_L858R (UniProt P00533)
# EGFR_L861Q = EGFR_L861Q (UniProt P00533)
# EGFR_T790M = EGFR_T790M (UniProt P00533)
# EPHA2 = EPHA2 (UniProt P29317)
# ERBB3 = ERBB3 (UniProt P21860)
# [1] = biological target: ERBB4_R711C (clone: ERBB4_mut) (UniProt Q15303)
SMILES,kinase-Nluc reporter destabilization hit call (CDK7),kinase-Nluc reporter destabilization hit call (CDK9),kinase-Nluc reporter destabilization hit call (CHEK2),kinase-Nluc reporter destabilization hit call (CSF1R),kinase-Nluc reporter destabilization hit call (CSK),kinase-Nluc reporter destabilization hit call (CSNK1A1),kinase-Nluc reporter destabilization hit call (CSNK1D),kinase-Nluc reporter destabilization hit call (DDR1),kinase-Nluc reporter destabilization hit call (DYRK1B),kinase-Nluc reporter destabilization hit call (DYRK2),kinase-Nluc reporter destabilization hit call (EGFR),kinase-Nluc reporter destabilization hit call (EGFR_G719S),kinase-Nluc reporter destabilization hit call (EGFR_G719S_T790M),kinase-Nluc reporter destabilization hit call (EGFR_L718V),kinase-Nluc reporter destabilization hit call (EGFR_L858R),kinase-Nluc reporter destabilization hit call (EGFR_L861Q),kinase-Nluc reporter destabilization hit call (EGFR_T790M),kinase-Nluc reporter destabilization hit call (EPHA2),kinase-Nluc reporter destabilization hit call (ERBB3),kinase-Nluc reporter destabilization hit call [1]
COc1cc(CCc2cc(-c3nc4ccc(N5CCN(C)CC5)cc4[nH]3)n[nH]2)cc(OC)c1 (10 µM),inactive: 0,inactive: 0,inactive: 0,inactive: 0,inactive: 0,inactive: 0,inactive: 0,inactive: 0,inactive: 0,inactive: 0,inactive: 0,inactive: 0,inactive: 0,inactive: 0,inactive: 0,inactive: 0,inactive: 0,inactive: 0,active: 1,inactive: 0
O=c1oc2c(C3OCCCO3)c(O)ccc2c2c1CNCC2 (10 µM),inactive: 0,inactive: 0,inactive: 0,inactive: 0,inactive: 0,inactive: 0,inactive: 0,inactive: 0,inactive: 0,inactive: 0,inactive: 0,inactive: 0,inactive: 0,inactive: 0,inactive: 0,inactive: 0,inactive: 0,inactive: 0,inactive: 0,inactive: 0
Oc1cc(O)cc(/C=C/c2ccc(O)c(O)c2)c1 [Piceatannol] (10 µM),inactive: 0,inactive: 0,inactive: 0,inactive: 0,inactive: 0,inactive: 0,inactive: 0,inactive: 0,inactive: 0,inactive: 0,inactive: 0,inactive: 0,inactive: 0,inactive: 0,inactive: 0,inactive: 0,inactive: 0,inactive: 0,inactive: 0,inactive: 0
CN1CCN(C2CCN(C(=O)Nc3cc(Oc4ccc(NC(=O)C5(C(=O)Nc6ccc(F)cc6)CC5)c(F)c4)ccn3)CC2)CC1 [Golvatinib] (2.5 µM),inactive: 0,inactive: 0,inactive: 0,inactive: 0,inactive: 0,inactive: 0,inactive: 0,inactive: 0,inactive: 0,inactive: 0,inactive: 0,inactive: 0,inactive: 0,inactive: 0,inactive: 0,inactive: 0,inactive: 0,,inactive: 0,inactive: 0
COc1cc(C(=O)NC2CCN(C)CC2)c(F)cc1Nc1ncc2c(n1)N(C1CCCC1)CC(F)(F)C(=O)N2C [TAK-960 (dihydrochloride)] (2.5 µM),inactive: 0,inactive: 0,inactive: 0,inactive: 0,inactive: 0,inactive: 0,inactive: 0,inactive: 0,inactive: 0,inactive: 0,inactive: 0,inactive: 0,inactive: 0,inactive: 0,inactive: 0,inactive: 0,inactive: 0,inactive: 0,inactive: 0,inactive: 0
COc1cc(OC)c(F)c(COc2cnc(Nc3cnn(CCO)c3)nc2)c1F (2.5 µM),inactive: 0,inactive: 0,inactive: 0,inactive: 0,inactive: 0,inactive: 0,inactive: 0,inactive: 0,inactive: 0,inactive: 0,inactive: 0,inactive: 0,inactive: 0,inactive: 0,inactive: 0,inactive: 0,inactive: 0,inactive: 0,inactive: 0,inactive: 0
O=c1oc2c(O)c(O)cc3c(=O)oc4c(O)c(O)cc1c4c23 [Ellagic acid] (10 µM),inactive: 0,inactive: 0,inactive: 0,inactive: 0,inactive: 0,inactive: 0,inactive: 0,inactive: 0,inactive: 0,inactive: 0,,,,,,,,inactive: 0,inactive: 0,inactive: 0
Nc1ncnc2c1c(-c1cccc(OCc3ccccc3)c1)cn2C1CC(CN2CCCC2)C1 (stereo not drawn) (2.5 µM),inactive: 0,inactive: 0,inactive: 0,inactive: 0,inactive: 0,inactive: 0,inactive: 0,inactive: 0,inactive: 0,inactive: 0,,,,,,,,inactive: 0,inactive: 0,inactive: 0
COc1ccc(C=C(C#N)c2cccnc2)cc1OC (10 µM),inactive: 0,inactive: 0,inactive: 0,inactive: 0,inactive: 0,inactive: 0,inactive: 0,inactive: 0,inactive: 0,inactive: 0,,,,,,,,inactive: 0,inactive: 0,inactive: 0
CCCCC[C@H](O)CC(=O)CCc1ccc(O)c(OC)c1 [[6]-Gingerol] (10 µM),inactive: 0,inactive: 0,inactive: 0,inactive: 0,inactive: 0,inactive: 0,inactive: 0,inactive: 0,inactive: 0,inactive: 0,,inactive: 0,inactive: 0,inactive: 0,inactive: 0,inactive: 0,inactive: 0,inactive: 0,inactive: 0,inactive: 0
O=c1c(O)c(-c2ccc(O)c(O)c2)oc2cc(O)cc(O)c12 [Quercetin (dihydrate)] (10 µM),inactive: 0,inactive: 0,inactive: 0,inactive: 0,inactive: 0,inactive: 0,inactive: 0,inactive: 0,inactive: 0,inactive: 0,,,,,,,,inactive: 0,inactive: 0,inactive: 0
Cc1cc(N2CCOCC2)cc2[nH]c(-c3c(NC[C@@H](O)c4cccc(Cl)c4)cc[nH]c3=O)nc12 (10 µM),inactive: 0,inactive: 0,inactive: 0,inactive: 0,inactive: 0,inactive: 0,inactive: 0,inactive: 0,inactive: 0,inactive: 0,,,,,,,,inactive: 0,inactive: 0,inactive: 0
CCN1CCN(c2ccc(Nc3cc(N(C)C(=O)Nc4c(Cl)c(OC)cc(OC)c4Cl)ncn3)cc2)CC1 [Infigratinib] (10 µM),inactive: 0,inactive: 0,inactive: 0,inactive: 0,inactive: 0,inactive: 0,inactive: 0,inactive: 0,inactive: 0,inactive: 0,,,,,,,,inactive: 0,inactive: 0,inactive: 0
CC(C)C(=O)Nc1ncc(-c2cc(C(F)F)nn2-c2c(Cl)cccc2Cl)s1 (10 µM),active: 1,inactive: 0,inactive: 0,inactive: 0,inactive: 0,inactive: 0,inactive: 0,inactive: 0,inactive: 0,inactive: 0,inactive: 0,,inactive: 0,inactive: 0,inactive: 0,inactive: 0,inactive: 0,inactive: 0,inactive: 0,inactive: 0
Cc1ccc(S(=O)(=O)Nc2nc3ccccc3nc2Nc2ccc3nsnc3c2)cc1 [Pilaralisib analogue] (10 µM),inactive: 0,inactive: 0,inactive: 0,inactive: 0,inactive: 0,inactive: 0,inactive: 0,inactive: 0,inactive: 0,active: 1,inactive: 0,inactive: 0,inactive: 0,inactive: 0,active: 1,inactive: 0,,inactive: 0,active: 1,active: 1
Cc1c(Cn2c(C)nc3c(C(=O)O)cc(N4CCOCC4)cc32)cccc1C(F)(F)F (10 µM),inactive: 0,inactive: 0,inactive: 0,inactive: 0,inactive: 0,inactive: 0,inactive: 0,inactive: 0,inactive: 0,inactive: 0,inactive: 0,inactive: 0,,,,,,inactive: 0,inactive: 0,inactive: 0
CCN(CCO)CCCOc1ccc2c(Nc3cc(CC(=O)Nc4cccc(F)c4)[nH]n3)ncnc2c1 [Barasertib-HQPA] (10 µM),inactive: 0,inactive: 0,inactive: 0,inactive: 0,inactive: 0,inactive: 0,inactive: 0,inactive: 0,inactive: 0,inactive: 0,,,,,,,,inactive: 0,inactive: 0,inactive: 0
O=C(O)CCNC(=O)c1ccc(/N=N/c2ccc(O)c(C(=O)O)c2)cc1 [Balsalazide] (10 µM),inactive: 0,inactive: 0,inactive: 0,inactive: 0,inactive: 0,inactive: 0,inactive: 0,inactive: 0,inactive: 0,inactive: 0,inactive: 0,inactive: 0,inactive: 0,inactive: 0,inactive: 0,inactive: 0,,inactive: 0,inactive: 0,inactive: 0
N#C/C(=C\c1ccc(O)c(O)c1)C(=O)NCc1ccccc1 (10 µM),inactive: 0,inactive: 0,inactive: 0,inactive: 0,inactive: 0,inactive: 0,inactive: 0,inactive: 0,inactive: 0,inactive: 0,,,,,,,,inactive: 0,inactive: 0,inactive: 0
COc1nccc(-c2c(-c3ccc(F)cc3)ncn2C2CCC(O)CC2)n1 (stereo not drawn) (10 µM),inactive: 0,inactive: 0,inactive: 0,inactive: 0,inactive: 0,inactive: 0,inactive: 0,inactive: 0,inactive: 0,inactive: 0,,,,,,,,inactive: 0,inactive: 0,inactive: 0
COc1cc2nc(C)nc(N[C@H](C)c3cc(N)cc(C(F)(F)F)c3)c2cc1O[C@H]1CCOC1 (10 µM),inactive: 0,inactive: 0,inactive: 0,inactive: 0,inactive: 0,inactive: 0,inactive: 0,inactive: 0,inactive: 0,inactive: 0,,,,,,,,inactive: 0,inactive: 0,inactive: 0
N#Cc1ccc2[nH]c(O)c(-c3ccc(CN4CCOCC4)cn3)c2c1 (10 µM),inactive: 0,inactive: 0,inactive: 0,inactive: 0,inactive: 0,inactive: 0,inactive: 0,inactive: 0,inactive: 0,inactive: 0,,,,,,,,inactive: 0,inactive: 0,inactive: 0

# 3 structures out of the list, ordered by length of the SMILES, ascending.
SMILES,kinase-Nluc reporter destabilization hit call (CDK7),kinase-Nluc reporter destabilization hit call (CDK9),kinase-Nluc reporter destabilization hit call (CHEK2),kinase-Nluc reporter destabilization hit call (CSF1R),kinase-Nluc reporter destabilization hit call (CSK),kinase-Nluc reporter destabilization hit call (CSNK1A1),kinase-Nluc reporter destabilization hit call (CSNK1D),kinase-Nluc reporter destabilization hit call (DDR1),kinase-Nluc reporter destabilization hit call (DYRK1B),kinase-Nluc reporter destabilization hit call (DYRK2),kinase-Nluc reporter destabilization hit call (EGFR),kinase-Nluc reporter destabilization hit call (EGFR_G719S),kinase-Nluc reporter destabilization hit call (EGFR_G719S_T790M),kinase-Nluc reporter destabilization hit call (EGFR_L718V),kinase-Nluc reporter destabilization hit call (EGFR_L858R),kinase-Nluc reporter destabilization hit call (EGFR_L861Q),kinase-Nluc reporter destabilization hit call (EGFR_T790M),kinase-Nluc reporter destabilization hit call (EPHA2),kinase-Nluc reporter destabilization hit call (ERBB3),kinase-Nluc reporter destabilization hit call [1]
O=c1c(O)c(-c2ccc(O)c(O)c2)oc2cc(O)cc(O)c12 [Quercetin (dihydrate)] (10 µM),inactive: 0,inactive: 0,inactive: 0,inactive: 0,inactive: 0,inactive: 0,inactive: 0,inactive: 0,inactive: 0,inactive: 0,,,,,,,,inactive: 0,inactive: 0,inactive: 0
CCN1CCN(c2ccc(Nc3cc(N(C)C(=O)Nc4c(Cl)c(OC)cc(OC)c4Cl)ncn3)cc2)CC1 [Infigratinib] (10 µM),inactive: 0,inactive: 0,inactive: 0,inactive: 0,inactive: 0,inactive: 0,inactive: 0,inactive: 0,inactive: 0,inactive: 0,,,,,,,,inactive: 0,inactive: 0,inactive: 0
CN1CCN(C2CCN(C(=O)Nc3cc(Oc4ccc(NC(=O)C5(C(=O)Nc6ccc(F)cc6)CC5)c(F)c4)ccn3)CC2)CC1 [Golvatinib] (2.5 µM),inactive: 0,inactive: 0,inactive: 0,inactive: 0,inactive: 0,inactive: 0,inactive: 0,inactive: 0,inactive: 0,inactive: 0,inactive: 0,inactive: 0,inactive: 0,inactive: 0,inactive: 0,inactive: 0,inactive: 0,,inactive: 0,inactive: 0
